# Measurements taken from PubChem BioAssay AID652054 (National Center for Advancing Translational Sciences (NCATS), 2013).
# The chains behind the UniProt entries cited, without tags or fusion partners.
# UniProt P35462, whole entry, looked up: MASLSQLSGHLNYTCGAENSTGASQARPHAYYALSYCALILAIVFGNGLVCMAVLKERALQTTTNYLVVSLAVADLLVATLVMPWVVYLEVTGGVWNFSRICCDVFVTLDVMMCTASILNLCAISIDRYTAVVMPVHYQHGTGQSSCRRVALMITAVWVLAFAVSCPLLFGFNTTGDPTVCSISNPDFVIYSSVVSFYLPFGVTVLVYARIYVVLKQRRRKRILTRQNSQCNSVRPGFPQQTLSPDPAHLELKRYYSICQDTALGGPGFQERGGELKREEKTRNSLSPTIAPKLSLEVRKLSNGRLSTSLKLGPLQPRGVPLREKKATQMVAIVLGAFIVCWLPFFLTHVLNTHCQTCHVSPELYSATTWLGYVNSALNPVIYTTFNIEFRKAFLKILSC
# In all, about 360,000 compounds went through this assay and about 9,100 (2.5%) were called active. This list was built around the results that the source calls inconclusive (neither active nor inactive); the mix of calls is not that of the screen. No stated cut-off is given here; in the data, active means max response below about -50%; inconclusive means no clear call, values can overlap the other calls; inactive means above that.
# Molecular target: D(3) dopamine receptor (Homo sapiens) (UniProt P35462)
# Test: qHTS of D3 Dopamine Receptor Antagonist: qHTS
# Settings: D3R cells, DiscoveRx beta-arrestin luminescence, antagonist mode; stronger effect = lower value
# Summary of the method: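 Cells expressing the human receptor were seeded at 1500 cells/well, incubated overnight at 37 degrees C in 5% CO2, then exposed to library compounds with dopamine controls for 90 minutes at 37 degrees C before luminescent detection.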
# On the % scale 0 is the no-effect control and ±100 the full control effect.
row,Compound,"max response, negative = inhibition"
1,CC(O)(c1ccccc1)c1nc(-c2ccncc2)cs1 (centres undefined),inconclusive: -34.8%
2,c1ccc(Cc2nnc(Sc3ccccc3)c3ccccc23)cc1,inconclusive: -35.2%
3,Cc1ccc(-c2nc3ccccc3[nH]2)cc1NC(=O)/C=C/c1ccco1,inconclusive: -44.4%
4,O=C1CC2C(CCC23OCCO3)c2ccc3ccccc3c21 (centres undefined),inactive: -12.8%
5,COC1(OC)C(/C=C/c2ccc(Cl)cc2)C(C#N)(C#N)C1(OC)OC (centres undefined),inconclusive: -32.1%
6,CC1CCCCN1S(=O)(=O)c1cccc2nonc12 (centres undefined),inactive: 0.225%
7,CC(=O)c1ccc(OCC(O)CN2CCN(Cc3ccccc3)CC2)cc1 (centres undefined),inconclusive: -37.7%
8,Cc1ccc(S(=O)(=O)N2CCN(C(=O)CN3CCc4ccccc4C3)CC2)cc1,inconclusive: -36.4%
9,O=C(O)CCC(=O)N1CCN(c2nc(-c3ccccc3Cl)c3cc(Br)ccc3n2)CC1,inconclusive: -35.8%
10,Cc1ccc(S(=O)(=O)/C(C#N)=C/c2c(N3CCC(C(N)=O)CC3)nc3ccccn3c2=O)cc1,inconclusive: -45.4%
11,COc1ccc(CCNC(=O)C2CCC(=O)N2CCc2ccccc2)cc1OC (centres undefined),inactive: -15.4%
12,O=c1cc(-c2ccccc2F)oc2ccccc12,inconclusive: -32.9%
13,COc1cccc(/C=C/c2ccc3cccc(O)c3n2)c1,active: -56%
14,CCc1noc(C)c1C(=O)N1CCCSC1=Nc1ccccc1C(C)C,inconclusive: -44.6%
15,O=C(CN1CCN(Cc2ccccc2)CC1)NC(=O)NC1CCCCC1,inactive: -2.48%
16,COc1ccccc1/C=C/C(=O)NCC(=O)N/N=C/c1cc(Br)ccc1OC,active: -71.4%
17,COc1ccc(CCC(=O)Nc2ccc(Cl)c(S(=O)(=O)N3CCCC3)c2)cc1,inactive: -8.34%
18,CNC(=O)NNC(=O)c1csc(Cc2c(Cl)sc3ccc(Cl)cc23)n1,inactive: 8.06%
19,CCOC(=O)C1CCCN(C(=O)C(=O)Nc2ccc3nc4n(c(=O)c3c2)CCCCC4)C1 (centres undefined),inconclusive: -44%
20,Cc1cccc(C)c1NC(=O)CN(C)CCc1ccccc1,inconclusive: -43.7%
21,CCOC(=O)C1CCCN(CC(O)COc2ccc(OC)cc2C(C)(C)C)C1 (centres undefined),inconclusive: -42.4%
22,O=C(NNC1=NCCC1)c1cccc(Br)c1,active: -58.1%
23,O=C(CN1CCN(c2ncccn2)CC1)NCCC1=CCCCC1,inconclusive: -36.4%

row,Compound,"max response, negative = inhibition"
1,CC(=O)Nc1ccc(C2=CC(=O)C[C@H](c3ccc4c(c3)OCO4)C2)cc1,inconclusive: -40.2%
2,COc1ccc(C(=O)Oc2cc(OC)cc(OC)c2C(C)=O)cc1,inconclusive: -39.3%
3,O=C(O)C1c2ccccc2Cc2ccccc21,inconclusive: -32.2%
4,CC(C)n1c(NCc2ccc(Cl)cc2)nc2ccccc21,inconclusive: -35.2%
5,COc1cccc(C(=O)Nc2ccc(NC(=O)c3ccco3)c(Cl)c2)c1,inconclusive: -31.3%
6,C=CCNCCCOc1ccc(C)cc1Br,inconclusive: -32.8%
7,CC1CCN(c2ccc(C(=O)NCCc3ccccc3)cn2)CC1,inconclusive: -34.2%
8,CC(C)NC(=O)CN1CCC(O)(c2ccccc2)CC1,inconclusive: -39.8%
9,CC1=NN(c2ccccc2)C(=O)C1=Cc1ccccc1,inconclusive: -43%
10,COc1ccccc1/C=C/C(=O)NCC(=O)N/N=C/c1ccccc1,inconclusive: -31.1%
11,NS(=O)(=O)c1ccc(Cc2ncc(C(F)(F)F)cc2Cl)s1,inactive: -3.29%
12,CC(NC(=O)CSc1n[nH]c(=O)n1C1CC1)C12CC3CC(CC(C3)C1)C2 (centres undefined),inconclusive: -33%
13,COC(=O)/C=C1\S/C(=N/NC(=O)c2ccccc2)NC1=O,active: -64.7%
14,CO/N=C/C1C(=O)NN=C1c1ccccc1 (centres undefined),inactive: 2.56%
15,COc1ccc(-c2cc(C(=O)N/N=C/c3cccnc3)c3cc(C)cc(C)c3n2)cc1,inactive: -4.32%
16,O=C(CC1C(=O)NCCN1Cc1ccccc1C(F)(F)F)NC1CCCC1 (centres undefined),inconclusive: -32.8%
17,CCCCN(CC)CCNC(=S)Nc1ccc2nc(N3CCN(C)CC3)cc(C)c2c1,inconclusive: -37.4%
18,COc1ccc(/C=C/C(=O)NCc2c(C)nn(C)c2C)cc1COc1ccc(Br)cc1,inconclusive: -39.4%
19,COc1ccc(C(=O)NCc2ccc3c(c2)OCO3)cc1S(=O)(=O)NCc1ccc(Cl)cc1,inactive: 0.908%
20,CN1CCN(C(=S)c2ccc(Br)cc2)CC1,inconclusive: -39.5%
21,CC(C)=NOc1cc(NC(=O)CCl)cc([N+](=O)[O-])c1,inconclusive: -30.5%
22,CCN(CC)C(=O)[C@H]1CC(CC(=O)NCCC2=CCCCC2)C(=O)N2CCc3c([nH]c4ccccc34)[C@]12C (some centres undefined),inconclusive: -45.2%
23,O=C(N/N=C/c1cccnc1)c1cc(-c2ccccc2Cl)nc2ccccc12,inactive: -7.46%

# Entries shown so far that have an aryl thioether with sulfur outside any ring:
row,Compound,"max response, negative = inhibition"
2,c1ccc(Cc2nnc(Sc3ccccc3)c3ccccc23)cc1,inconclusive: -35.2%
12,CC(NC(=O)CSc1n[nH]c(=O)n1C1CC1)C12CC3CC(CC(C3)C1)C2 (centres undefined),inconclusive: -33%

# The results go on:

row,Compound,"max response, negative = inhibition"
1,O=C(c1ccccc1)N1CCC(=O)N(C(CO)Cc2ccccc2)CC1 (centres undefined),inconclusive: -35.6%
2,COc1cccc(/C=C(/C#N)c2ccc(F)cc2)c1OCc1cccc(C(=O)O)c1,inactive: 13%
3,Cc1nc(SCC(=O)Nc2ccc3c(c2)OCCO3)nc(C)c1C,inactive: -11%
4,COc1ccc(Nc2nc3ccccc3nc2NS(=O)(=O)c2ccc(NC(C)=O)cc2)cc1,inconclusive: -38.6%
5,C=CCN1C(=O)C(=Cc2ccc3c(c2)CCC3)SC1=S,inactive: -9.67%
6,O=C(NCC1CCCCC1)c1cc(S(=O)(=O)N2CCCCC2)ccc1Cl,inactive: -8.96%
7,COc1ccc(C2CC(c3ccc(F)cc3)=NN2c2ccccc2)cc1OC (centres undefined),inactive: 0.52%
8,CCCCC1=NN(C(=O)c2ccco2)C(O)(C(F)(F)F)C1 (centres undefined),inactive: -1.7%
9,O=C1c2ccccc2CN1CCSC(=S)N1CCOCC1,inconclusive: -33.1%
10,CCOc1cc(/C=N/NC(=O)c2cccc([N+](=O)[O-])c2)ccc1OS(=O)(=O)c1ccccc1,active: -61.2%
11,CCc1ccc(Nc2c([N+](=O)[O-])c(=O)oc3ccccc23)cc1,inconclusive: -31%
12,CSc1ncnc2c1ncn2CCCNCC(c1ccccc1)c1ccccc1,inconclusive: -33%
13,CCN(CC)C(=O)Cn1cnc2sc(C)c(S(=O)(=O)N3CCC(C)CC3)c2c1=O,inactive: 5.99%
14,C=CCn1c(=O)c(C(=O)Nc2ccccc2C)c(O)c2ccccc21,inactive: 20.8%
15,Cc1nn(CC(=O)Nc2ccc3c(c2)OCO3)c(C)c1[N+](=O)[O-],inconclusive: -33.1%
16,O=C(O)C1CC=CCC1C(=O)N1CCN(c2nc(-c3ccccc3)c3ccccc3n2)CC1 (centres undefined),inactive: -5.13%
17,CCN(CC)CCNC(=O)c1ccc(NC(=O)c2ccc(Cl)c(S(=O)(=O)N3CCCCCC3)c2)cc1,inconclusive: -45.6%
18,c1ccc(C2c3[nH]c4ccccc4c3CCN2Cc2cccn2-c2cccnc2)nc1 (centres undefined),inconclusive: -31.2%
19,O=C(COc1ccccc1)NC1CCS(=O)(=O)C1 (centres undefined),inactive: -5.13%
20,COc1cc2sc(-c3ccccc3OC)c(-c3ccc(OCCN4CCCCC4)cc3)c2cc1OC,inconclusive: -36.3%
21,COc1ccc(NC(=O)C2Cc3c(-c4ccc5c(c4)OCO5)ccnc3O2)cc1 (centres undefined),inconclusive: -30.2%
22,O=C(NCCCN1CCC(Cc2ccccc2)CC1)c1ccc2nc(N3CCOCC3)sc2c1,inconclusive: -45.5%
23,COc1ccc(C(=O)/C=C/Sc2nc3ccccc3o2)cc1,active: -105%

row,Compound,"max response, negative = inhibition"
1,CC1CC(C)CN(c2ccc([N+](=O)[O-])cc2-c2nn[nH]n2)C1 (centres undefined),inconclusive: -35.7%
2,O=C(Nc1ccc2c(c1)OCCO2)c1ccc(Cl)c([N+](=O)[O-])c1,inactive: -27%
3,COc1ccc(C(CNc2nc(-c3cccnc3)nc3ccccc23)N(C)C)cc1 (centres undefined),inconclusive: -33%
4,O=C(NCc1ccccn1)c1ccc(Cl)c(S(=O)(=O)N2CCCCCC2)c1,inconclusive: -35.1%
5,O=[N+]([O-])c1cc(Cl)cc(/C=N/n2cnnc2)c1O,active: -56.9%
6,CC1(C)N=C(N)N=C(N)N1c1ccc(OCCCOc2ccccc2)c(Cl)c1,inactive: -2.5%
7,O=C1c2cccnc2C(O)N1Cc1ccc(F)cc1 (centres undefined),active: -65.5%
8,COc1ccc(NC(=O)c2cccc3c2C(=O)N(C2CCCCC2)C3)cc1,inactive: 3.68%
9,COc1ccc(OC)c(Nc2c3ccccc3nc3ccccc23)c1,inconclusive: -31.2%
10,Cn1ccc2c(-c3ccccc3F)cc3c(c21)C1CCC3C1 (centres undefined),active: -54.3%
11,CC(C)n1cnc2c(NCc3ccccc3)cc(OCC3CCN(C)CC3)cc21,inconclusive: -42.5%
12,C=CCN(CC=C)S(=O)(=O)c1ccc(NC(=S)NC(=O)Cc2ccc(OC)cc2)cc1,inconclusive: -33.5%
13,Cc1nc2c(ccc3c2ccc2nc(C)sc23)s1,inconclusive: -30.3%
14,CCN(CC)S(=O)(=O)c1ccc2oc(C(=O)O)c(C)c2c1,inconclusive: -30.4%
15,CC(C)C1NCCc2c1sc1ccccc21 (centres undefined),active: -61.2%
16,CCN(c1ccccc1)S(=O)(=O)c1ccc(C(=O)NCC(=O)Nc2ccc(F)c(F)c2F)cc1,active: -96.9%
17,COc1ccc(N(C(=O)c2ccco2)C(C(=O)NC2CCCC2)c2ccc(N(C)C)cc2)cc1 (centres undefined),inconclusive: -45%
18,CCS(=O)(=O)c1ncc(Cl)c(C(=O)Nc2ccc(S(=O)(=O)N(C)c3ccccc3)cc2)n1,inconclusive: -39.1%
19,O=C(N/N=C/c1ccc(-c2ccc(S(=O)(=O)Nc3ncccn3)cc2)o1)c1cc2ccccc2cc1O,inconclusive: -45.7%
20,Nc1ncnc2c1ncn2[C@@H]1O[C@H](CNCc2ccc(-c3cc(C(F)(F)F)ccc3Cl)o2)[C@@H](O)[C@H]1O,active: -75.8%

# Among those listed so far, 3 have a cyano group:
row,Compound,"max response, negative = inhibition"
5,COC1(OC)C(/C=C/c2ccc(Cl)cc2)C(C#N)(C#N)C1(OC)OC (centres undefined),inconclusive: -32.1%
10,Cc1ccc(S(=O)(=O)/C(C#N)=C/c2c(N3CCC(C(N)=O)CC3)nc3ccccn3c2=O)cc1,inconclusive: -45.4%
2,COc1cccc(/C=C(/C#N)c2ccc(F)cc2)c1OCc1cccc(C(=O)O)c1,inactive: 13%
